Experimental data taken from ChEMBL document CHEMBL1221220, “Transport and signaling via the amino acid binding site of the yeast Gap1 amino acid transceptor” (Nat Chem Biol, 2009).

Target: T1, General amino-acid permease GAP1 (Saccharomyces cerevisiae) (UniProt P19145)
T1 sequence (whole entry): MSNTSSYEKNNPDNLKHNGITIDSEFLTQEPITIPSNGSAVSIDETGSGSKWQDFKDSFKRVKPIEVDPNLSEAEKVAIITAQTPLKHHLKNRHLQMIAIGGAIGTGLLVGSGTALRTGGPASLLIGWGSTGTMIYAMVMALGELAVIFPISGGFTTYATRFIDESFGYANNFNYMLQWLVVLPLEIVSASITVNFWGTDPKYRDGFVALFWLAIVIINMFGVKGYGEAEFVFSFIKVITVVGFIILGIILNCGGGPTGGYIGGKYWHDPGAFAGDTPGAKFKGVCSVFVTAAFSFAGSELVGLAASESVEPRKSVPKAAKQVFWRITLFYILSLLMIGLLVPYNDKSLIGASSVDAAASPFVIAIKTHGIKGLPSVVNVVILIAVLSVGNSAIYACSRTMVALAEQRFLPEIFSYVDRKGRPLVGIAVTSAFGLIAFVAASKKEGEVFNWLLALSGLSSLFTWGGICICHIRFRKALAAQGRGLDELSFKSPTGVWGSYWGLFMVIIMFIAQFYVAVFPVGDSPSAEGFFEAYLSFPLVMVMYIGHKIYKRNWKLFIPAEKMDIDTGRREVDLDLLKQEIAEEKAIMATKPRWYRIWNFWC
Conditions: sigma1278b, at 5 mM
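Also: amino acid uptake through Gap1 in nitrogen-starved wild-type yeast cells, measured after 60 s and expressed relative to L-citrulline.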

inhibition: < 15%
SMILES: CCC[C@H](NC(=O)OC(C)(C)C)C(=O)O
